Results of single-concentration screens

Mtb glucose medium: 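Growth of Mycobacterium tuberculosis over 3 days (7H9 medium with glucose and tyloxapol); the read-out is not stated. Concentration: 500 µM. The record gives no direction; compounds that gave an IC50 in retests scored well above the rest, so higher reads as more growth inhibition. Of about 18,000 compounds tested this way, about 1,400 (7.9%) reached 50% or more in at least one test.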
Mtb cholesterol medium: 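Phenotypic screen: M. tuberculosis growth, cholesterol and DPPC medium, 4 days; the read-out is not stated. Tested at 500 µM. The record gives no direction; compounds that gave an IC50 in retests scored well above the rest, so higher reads as more growth inhibition. Size under these conditions: about 18,000 compounds, about 900 of them at 50% or above in at least one test.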

The filed quantity is “Percent Effect” (%).
The record does not define 0% and 100%; most values in the screen are far below 50% and negative numbers occur (in some assays of this library far below -100).
Compounds were drawn at random from those tested, without regard to their results.

| Compound | Mtb glucose medium | Mtb cholesterol medium |
|---|---|---|
| `Cc1sc(-c2ccco2)nc1C(=O)N1CC[C@@H](O)C1` | -10.2% | -13.32% |
| `CCSCCN(C)Cc1nccn1C` | -4.646% | -2.341% |
| `CCN(CC)C(=O)CN(C)c1ncnc2c1cnn2C` | 4.722% | -3.786% |
| `CC(=O)N1CCC(c2noc(-c3ccccn3)n2)C1` (stereo not given) | 13.1% | 9.697% |
| `CNC(=O)CC1C(=O)NCCN1C1CCNCC1` (stereo not given) | 12% | 4.801% |
| `Cc1cccc(NC(=O)C2CCC(=O)NC2)n1` (stereo not given) | -11.15% | -7.677% |
| `CC(C(N)=O)N(C)Cc1cnn(-c2cccc(F)c2)c1` (stereo not given) | 32.39% | 22.37% |
| `C[C@H](N)C(=O)NCCO` | 7.865% | -3.815% |
| `O=C(NCC1(O)CCNC1)Nc1cccc(Cl)c1` (stereo not given) | 39.12% | 21.14% |
| `CN(C)C(=O)CCNC(=O)Nc1cnn(C(C)(C)C)c1` | -0.1032% | -2.592% |
| `COCCc1noc(-c2cnsn2)n1` | -7.139% | -9.854% |
| `COCC(C)(N)C(=O)OC` (stereo not given) | 0.4379% | -6.883% |
| `CCC(=O)NC(C)(C#N)C(C)C` (stereo not given) | 5.911% | 3.912% |
| `CCC(CO)NC(=O)C1(c2ccc(F)cc2F)CCC1` (stereo not given) | 54.95% | 52.52% |
| `CC(=O)NCCCNC(=O)Nc1ccc(F)cc1C` | -8.58% | -21.17% |
| `NC1CCN(C(=O)c2ccccn2)C1` (stereo not given) | -6.902% | -8.99% |
| `CC1Oc2c(cccc2C(=O)N2CCC2(C)C)NC1=O` (stereo not given) | 3.542% | -5.882% |
| `CN(C)Cc1cccc(C(=O)NCC2(C)COC2)c1` | 12.56% | 7.839% |
| `CN(C)c1cc(CNc2ccc(C#N)cn2)ccn1` | 60.27% | 70.54% |
| `O[C@@H]1CNC[C@H]1n1ccnn1` | 90.37% | 87.43% |
| `CCOc1ccccc1C(=O)Nn1cnnc1` | -2.444% | 9.815% |
| `CCCn1cc(C(=O)N2CCCC(C#N)C2)c(C)n1` (stereo not given) | -3.234% | -3.949% |
| `COc1cccc(C(C)O)c1` (stereo not given) | 3.015% | -8.282% |
| `CCN1CCN(C(=O)c2ccc(N)nc2)CC1` | -0.9435% | 2.327% |
| `CNC(=O)[C@@H]1C[C@@H](N)CN1Cc1ccc(Cl)s1` | 41.24% | 21.67% |
| `Cn1ccnc1C1CCCN1C(=O)c1cccs1` (stereo not given) | 16.5% | 11.3% |
| `O=C(CN1CCC(O)CC1)Nc1ccc(Br)cn1` | 4.355% | -10.89% |
| `CC(C)N(CC(F)F)C(=O)CNC(=O)c1cccs1` | -5.943% | -6.718% |
| `Cc1cccn(CC(=O)NCc2cccs2)c1=O` | 2.294% | -0.6867% |
| `CCS(=O)(=O)c1ccc(CNc2cc(C)ccn2)cc1` | 1.479% | 1.003% |
| `CCN(CC)CCOC1CNC1` | -4.859% | -7.015% |
| `Cc1cnc(C2CCCN(C(=O)c3nc(=O)[nH][nH]3)C2)s1` (stereo not given) | 12.71% | 4.093% |
| `Cn1ncc(CNC(=O)Nc2ccccc2F)c1N` | 1.054% | -10.2% |
| `COc1cc(C)ccc1OC(C)C(=O)NC(N)=O` (stereo not given) | 8.366% | -13.76% |
| `OC1(CNCCOCc2ccc(Cl)cc2)CCCNC1` (stereo not given) | 46.72% | 45.8% |
| `CC(C)COCCN1CCCN(C)C(=O)C1` | 14.08% | 0.1088% |
| `Cc1ncsc1C(=O)NC1CCCCNC1=O` (stereo not given) | 63.3% | -11.59% |
| `CCC(=O)Nc1ccc(N2CCN(CC)CC2)c(C)c1` | 40.54% | 8.158% |
| `CC(C)c1nc(CNCC2CCN(CCO)CC2)no1` | 9.71% | 0.2571% |
| `CN(C)c1ncccc1CNS(=O)(=O)c1cnn(C)c1` | -1.412% | -11.85% |
| `CCC(NC(=O)Cn1cc(Cl)c(C)n1)c1ccnn1C` (stereo not given) | 11.81% | -18.6% |
| `Cc1ocnc1C(=O)N1CCC(O)c2ccccc2C1` (stereo not given) | 7.556% | 2.988% |
| `CN1CCC(CCO)CC1` | -5.925% | 7.367% |
| `Cc1nn(C)c(C)c1CN1CC(C)C1` | 6.879% | -1.582% |
| `CN(C1(C#N)CCC1)S(=O)(=O)c1ccccc1` | 59.79% | 29.62% |
| `COc1ccc(Br)c(S(=O)(=O)N(C)C)c1` | 54.72% | 42.51% |
| `CC(C)NC(=O)NC(C)c1ccccc1` (stereo not given) | -4.065% | 68.58% |
| `CS(=O)(=O)N1CCCC(C(=O)Nc2ccccn2)C1` (stereo not given) | -10.9% | -12.72% |
| `CNCc1nc(C(F)(F)F)no1` | 54.64% | 10.21% |
| `OC1CCCNCC1` (stereo not given) | 7.762% | 8.686% |
| `COCCCNC(=O)CN1CCc2ccccc2C1` | 30.85% | 21.83% |
| `CN(CCn1cccn1)C(=O)CC1CCCN1C` (stereo not given) | 8.332% | 9.07% |
| `CCC(C)n1nc(C)cc1NC(=O)NCCNC(C)=O` (stereo not given) | 9.224% | 7.976% |
| `COc1cc(F)cc(CN)c1` | 6.412% | -2.63% |
| `CCN1CCN(CC(=O)Nc2ccc(OC)cc2)CC1` | 14.97% | 6.532% |
| `CC1(C)CCCN(C(=O)CCS(C)(=O)=O)CC1` | 35.74% | 35.31% |

6 of the entries, repeated:

| Compound | Mtb glucose medium | Mtb cholesterol medium |
|---|---|---|
| `O=C(NCC1(O)CCNC1)Nc1cccc(Cl)c1` (stereo not given) | 39.12% | 21.14% |
| `NC1CCN(C(=O)c2ccccn2)C1` (stereo not given) | -6.902% | -8.99% |
| `CC(C(N)=O)N(C)Cc1cnn(-c2cccc(F)c2)c1` (stereo not given) | 32.39% | 22.37% |
| `CCC(=O)Nc1ccc(N2CCN(CC)CC2)c(C)c1` | 40.54% | 8.158% |
| `COc1cc(F)cc(CN)c1` | 6.412% | -2.63% |
| `CCC(CO)NC(=O)C1(c2ccc(F)cc2F)CCC1` (stereo not given) | 54.95% | 52.52% |

Source: ChEMBL document CHEMBL3988442, “University of Dundee, Small-Polar-MMV Screening Library” (2021).